Molecular target: T1, hNav1.4 (human skeletal muscle sodium channel) (Homo sapiens, UniProt P35499)
T1 construct: gene SCN4A; alpha subunit permanently transfected in HEK293 cells; no beta subunit mentioned
Assay: whole-cell patch clamp, sodium current in HEK293
Assay type: cell-based
Conditions: read-out: IC50 (μM) / 50 Hz, hp - 90 mV
Excerpt: whole-cell patch clamp, sodium current in HEK293 on hNav1.4 (human skeletal muscle sodium channel)

Amino acid sequences for entries named in this document (tags omitted).
UniProt P35499, whole entry: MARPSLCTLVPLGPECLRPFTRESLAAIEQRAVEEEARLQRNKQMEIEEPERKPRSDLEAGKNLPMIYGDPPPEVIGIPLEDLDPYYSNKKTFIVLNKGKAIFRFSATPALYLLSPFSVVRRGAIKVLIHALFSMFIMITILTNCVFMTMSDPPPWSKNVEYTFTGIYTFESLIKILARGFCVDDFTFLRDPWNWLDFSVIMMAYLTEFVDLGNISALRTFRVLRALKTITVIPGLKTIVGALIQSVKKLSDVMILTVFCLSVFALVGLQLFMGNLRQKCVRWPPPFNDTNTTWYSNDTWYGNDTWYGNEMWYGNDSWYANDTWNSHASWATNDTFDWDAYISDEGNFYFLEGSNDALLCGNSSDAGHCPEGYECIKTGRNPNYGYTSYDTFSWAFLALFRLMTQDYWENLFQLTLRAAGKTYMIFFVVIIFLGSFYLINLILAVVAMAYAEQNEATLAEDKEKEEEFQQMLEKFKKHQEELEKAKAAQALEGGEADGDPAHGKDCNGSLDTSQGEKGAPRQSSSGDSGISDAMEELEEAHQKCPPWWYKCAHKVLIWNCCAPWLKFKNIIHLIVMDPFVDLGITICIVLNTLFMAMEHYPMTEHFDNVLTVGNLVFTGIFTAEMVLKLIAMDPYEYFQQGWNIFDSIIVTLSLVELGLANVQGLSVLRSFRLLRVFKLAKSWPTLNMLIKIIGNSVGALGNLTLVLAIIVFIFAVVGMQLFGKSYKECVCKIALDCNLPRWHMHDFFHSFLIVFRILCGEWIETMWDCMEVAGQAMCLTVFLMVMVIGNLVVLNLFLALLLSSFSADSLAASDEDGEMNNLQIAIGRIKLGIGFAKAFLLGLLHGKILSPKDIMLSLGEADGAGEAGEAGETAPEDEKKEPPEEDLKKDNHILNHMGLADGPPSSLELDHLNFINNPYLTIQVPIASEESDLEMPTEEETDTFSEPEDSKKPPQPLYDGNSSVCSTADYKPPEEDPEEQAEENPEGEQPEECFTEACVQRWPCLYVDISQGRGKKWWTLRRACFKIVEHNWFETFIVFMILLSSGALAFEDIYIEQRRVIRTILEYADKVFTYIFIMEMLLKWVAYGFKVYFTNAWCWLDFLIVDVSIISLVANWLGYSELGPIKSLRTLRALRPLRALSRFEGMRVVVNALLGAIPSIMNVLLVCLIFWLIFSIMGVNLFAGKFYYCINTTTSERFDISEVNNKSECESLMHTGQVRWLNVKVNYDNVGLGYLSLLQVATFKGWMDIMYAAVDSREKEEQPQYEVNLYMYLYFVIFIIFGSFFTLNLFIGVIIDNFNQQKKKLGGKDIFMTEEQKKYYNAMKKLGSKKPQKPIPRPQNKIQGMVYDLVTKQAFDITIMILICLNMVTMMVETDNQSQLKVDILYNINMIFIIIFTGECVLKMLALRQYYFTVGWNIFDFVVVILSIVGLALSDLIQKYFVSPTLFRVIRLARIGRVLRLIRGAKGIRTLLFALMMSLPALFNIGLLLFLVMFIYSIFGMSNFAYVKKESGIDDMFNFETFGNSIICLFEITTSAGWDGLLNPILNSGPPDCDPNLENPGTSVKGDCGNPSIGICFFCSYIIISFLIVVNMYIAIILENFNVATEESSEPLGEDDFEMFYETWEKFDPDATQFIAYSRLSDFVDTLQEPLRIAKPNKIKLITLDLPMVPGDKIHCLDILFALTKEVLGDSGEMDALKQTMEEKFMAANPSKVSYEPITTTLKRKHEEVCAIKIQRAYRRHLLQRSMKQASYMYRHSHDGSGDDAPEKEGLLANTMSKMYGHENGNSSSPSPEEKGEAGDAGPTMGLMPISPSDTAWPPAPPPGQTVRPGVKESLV

SMILES: Cc1ccccc1C(OCCN(C)C)c1ccccc1 (stereo not shown) [Orphenadrine]
- IC50: ~5 µM
